Laboratory results taken from paper PMC3991325.
Results are given in words; binding and its absence hold for the method and conditions named. Binding seen in cells or lysates may run through a third protein. These calls come from enrichment with a bait or labelling near it, and not all partners need be listed. A no says only that the protein was not detected with the bait.

Sequences of proteins named here, by UniProt entry; tags and fusion partners are left off.
UniProt Q05022: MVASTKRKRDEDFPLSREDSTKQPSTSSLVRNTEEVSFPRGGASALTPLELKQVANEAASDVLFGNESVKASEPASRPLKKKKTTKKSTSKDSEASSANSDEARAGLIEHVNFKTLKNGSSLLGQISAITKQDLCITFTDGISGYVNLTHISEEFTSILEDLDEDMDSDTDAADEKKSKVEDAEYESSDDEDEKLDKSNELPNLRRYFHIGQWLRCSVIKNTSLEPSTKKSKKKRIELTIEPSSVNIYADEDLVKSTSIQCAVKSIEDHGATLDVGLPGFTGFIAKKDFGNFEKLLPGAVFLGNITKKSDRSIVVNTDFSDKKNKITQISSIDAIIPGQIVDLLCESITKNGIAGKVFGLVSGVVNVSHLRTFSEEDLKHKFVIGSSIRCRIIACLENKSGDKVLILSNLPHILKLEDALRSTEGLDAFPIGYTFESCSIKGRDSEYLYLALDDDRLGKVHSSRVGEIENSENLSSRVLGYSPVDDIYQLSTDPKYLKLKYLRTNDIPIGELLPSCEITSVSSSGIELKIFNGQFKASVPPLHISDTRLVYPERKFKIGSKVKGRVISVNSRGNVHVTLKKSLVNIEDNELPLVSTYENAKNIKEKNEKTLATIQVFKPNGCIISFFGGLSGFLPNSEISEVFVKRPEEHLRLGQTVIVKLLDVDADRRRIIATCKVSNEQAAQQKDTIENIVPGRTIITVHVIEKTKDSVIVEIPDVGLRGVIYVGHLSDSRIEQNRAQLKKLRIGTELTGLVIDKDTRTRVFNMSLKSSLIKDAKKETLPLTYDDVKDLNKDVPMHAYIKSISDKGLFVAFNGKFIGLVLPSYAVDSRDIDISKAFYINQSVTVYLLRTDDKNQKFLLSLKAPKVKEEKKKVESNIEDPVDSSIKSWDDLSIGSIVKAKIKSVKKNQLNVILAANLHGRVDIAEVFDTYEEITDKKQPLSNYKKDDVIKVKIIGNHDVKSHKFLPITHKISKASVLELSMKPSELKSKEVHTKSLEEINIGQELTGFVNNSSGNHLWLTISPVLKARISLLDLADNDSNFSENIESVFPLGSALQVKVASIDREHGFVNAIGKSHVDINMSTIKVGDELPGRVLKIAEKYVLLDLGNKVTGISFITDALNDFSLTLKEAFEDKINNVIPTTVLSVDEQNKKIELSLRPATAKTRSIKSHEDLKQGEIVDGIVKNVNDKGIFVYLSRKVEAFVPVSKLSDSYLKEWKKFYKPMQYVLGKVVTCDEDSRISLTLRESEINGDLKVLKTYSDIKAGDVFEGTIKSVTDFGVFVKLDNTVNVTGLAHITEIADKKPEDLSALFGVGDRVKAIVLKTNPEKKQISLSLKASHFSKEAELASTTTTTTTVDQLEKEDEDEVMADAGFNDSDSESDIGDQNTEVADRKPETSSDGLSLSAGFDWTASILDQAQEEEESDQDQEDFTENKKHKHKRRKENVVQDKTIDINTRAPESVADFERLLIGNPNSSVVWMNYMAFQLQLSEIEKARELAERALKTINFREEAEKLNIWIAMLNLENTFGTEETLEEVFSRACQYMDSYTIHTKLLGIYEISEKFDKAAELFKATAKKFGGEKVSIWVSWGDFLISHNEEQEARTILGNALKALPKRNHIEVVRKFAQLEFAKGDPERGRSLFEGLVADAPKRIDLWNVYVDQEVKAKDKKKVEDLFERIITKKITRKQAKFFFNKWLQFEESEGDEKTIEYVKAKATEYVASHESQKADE

Molecular target: Rrp5-HTP (budding yeast) (UniProt Q05022)
Assay: affinity purification with mass spectrometry; Rrp5-HTP bound to an IgG column, RNase treatment, brief formaldehyde crosslinking on the column, washing under denaturing conditions (8 M urea), release by brief decrosslinking and SDS; the material migrating above Rrp5 in SDS-PAGE analysed by mass spectrometry; Brr2 as control bait

| Binder | binding |
| --- | --- |
| Rps17 (protein, UniProt P02407 1-136) MGRVRTKTVKRASKALIERYYPKLTLDFQTNKRLCDEIATIQSKRLRNKIAGYTTHLMKRIQKGPVRGISFKLQEEERERKDQYVPEVSALDLSRSNGVLNVDNQTSDLVKSLGLKLPLSVINVSAQRDRRYRKRV | binds |
| Rps8 (protein, UniProt P0CX39 1-200) MGISRDSRHKRSATGAKRAQFRKKRKFELGRQPANTKIGAKRIHSVRTRGGNKKYRALRIETGNFSWASEGISKKTRIAGVVYHPSNNELVRTNTLTKAAIVQIDATPFRQWFEAHYGQTLGKKKNVKEEETVAKSKNAERKWAARAASAKIESSVESQFSAGRLYACISSRPGQSGRCDGYILEGEELAFYLRRLTAKK | binds |
| Rps7 (protein, UniProt P26786 1-190) MSAPQAKILSQAPTELELQVAQAFVELENSSPELKAELRPLQFKSIREIDVAGGKKALAIFVPVPSLAGFHKVQTKLTRELEKKFQDRHVIFLAERRILPKPSRTSRQVQKRPRSRTLTAVHDKILEDLVFPTEIVGKRVRYLVGGNKIQKVLLDSKDVQQIDYKLESFQAVYNKLTGKQIVFEIPSETH | binds |
| Rps19 (protein, UniProt P07280 1-144) MPGVSVRDVAAQDFINAYASFLQRQGKLEVPGYVDIVKTSSGNEMPPQDAEGWFYKRAASVARHIYMRKQVGVGKLNKLYGGAKSRGVRPYKHIDASGSINRKVLQALEKIGIVEISPKGGRRISENGQRDLDRIAAQTLEEDE | binds |
| Rpl33 (protein, UniProt P05744 1-107) MAESHRLYVKGKHLSYQRSKRVNNPNVSLIKIEGVATPQDAQFYLGKRIAYVYRASKEVRGSKIRVMWGKVTRTHGNSGVVRATFRNNLPAKTFGASVRIFLYPSNI | binds |
| Utp21 (protein, UniProt Q06078 1-939) MSIDLKKRKVEEDVRSRGKNSKIFSPFRIIGNVSNGVPFATGTLGSTFYIVTCVGKTFQIYDANTLHLLFVSEKETPSSIVALSAHFHYVYAAYENKVGIYKRGIEEHLLELETDANVEHLCIFGDYLCASTDDNSIFIYKKSDPQDKYPSEFYTKLTVTEIQGGEIVSLQHLATYLNKLTVVTKSNVLLFNVRTGKLVFTSNEFPDQITTAEPAPVLDIIALGTVTGEVIMFNMRKGKRIRTIKIPQSRISSLSFRTDGSSHLSVGTSSGDLIFYDLDRRSRIHVLKNIHRESYGGVTQATFLNGQPIIVTSGGDNSLKEYVFDPSLSQGSGDVVVQPPRYLRSRGGHSQPPSYIAFADSQSHFMLSASKDRSLWSFSLRKDAQSQEMSQRLHKKQDGGRVGGSTIKSKFPEIVALAIENARIGEWENIITAHKDEKFARTWDMRNKRVGRWTFDTTDDGFVKSVAMSQCGNFGFIGSSNGSITIYNMQSGILRKKYKLHKRAVTGISLDGMNRKMVSCGLDGIVGFYDFNKSTLLGKLKLDAPITAMVYHRSSDLFALALDDLSIVVIDAVTQRVVRQLWGHSNRITAFDFSPEGRWIVSASLDSTIRTWDLPTGGCIDGIIVDNVATNVKFSPNGDLLATTHVTGNGICIWTNRAQFKTVSTRTIDESEFARMALPSTSVRGNDSMLSGALESNGGEDLNDIDFNTYTSLEQIDKELLTLSIGPRSKMNTLLHLDVIRKRSKPKEAPKKSEKLPFFLQLSGEKVGDEASVREGIAHETPEEIHRRDQEAQKKLDAEEQMNKFKVTGRLGFESHFTKQLREGSQSKDYSSLLATLINFSPAAVDLEIRSLNSFEPFDEIVWFIDALTQGLKSNKNFELYETFMSLLFKAHGDVIHANNKNQDIASALQNWEDVHKKEDRLDDLVKFCMGVAAFVTTA | binds |
| Nop14 (protein, UniProt Q99207 1-810) MAGSQLKNLKAALKARGLTGQTNVKSKNKKNSKRQAKEYDREEKKKAIAEIREEFNPFEIKAARNKRRDGLPSKTADRIAVGKPGISKQIGEEQRKRAFEARKMMKNKRGGVIDKRFGERDKLLTEEEKMLERFTRERQSQSKRNANLFNLEDDEDDGDMFGDGLTHLGQSLSLEDELANDEEDFLASKRFNEDDAELQQPQRKKTKAEVMKEVIAKSKFYKQERQKAQGIMEDQIDNLDDNFEDVMSELMMTQPKKNPMEPKTDLDKEYDIKVKELQLDKRAAPSDRTKTEEEKNAEAEEKKRELEQQRLDRMNGMIELEEGEERGVEDLDDGFWENEEDYEDDNDGIADSDDDIKFEDQGRDEGFSQILKKKNISISCPRTHDALLDQVKKLDLDDHPKIVKNIIKAYQPKLAEGNKEKLGKFTAVLLRHIIFLSNQNYLKNVQSFKRTQNALISILKSLSEKYNRELSEECRDYINEMQARYKKNHFDALSNGDLVFFSIIGILFSTSDQYHLVITPALILMSQFLEQIKFNSLKRIAFGAVLVRIVSQYQRISKRYIPEVVYFFQKILLTFIVEKENQEKPLDFENIRLDSYELGLPLDVDFTKKRSTIIPLHTLSTMDTEAHPVDQCVSVLLNVMESLDATISTVWKSLPAFNEIILPIQQLLSAYTSKYSDFEKPRNILNKVEKLTKFTEHIPLALQNHKPVSIPTHAPKYEENFNPDKKSYDPDRTRSEINKMKAQLKKERKFTMKEIRKDAKFEARQRIEEKNKESSDYHAKMAHIVNTINTEEGAEKNKYERERKLRGGKK | binds |
| Rcl1 (protein, UniProt Q08096 1-367) MSSSAPKYTTFQGSQNFRLRIVLATLSGKPIKIEKIRSGDLNPGLKDYEVSFLRLIESVTNGSVIEISYTGTTVIYRPGIIVGGASTHICPSSKPVGYFVEPMLYLAPFSKKKFSILFKGITASHNDAGIEAIKWGLMPVMEKFGVRECALHTLKRGSPPLGGGEVHLVVDSLIAQPITMHEIDRPIISSITGVAYSTRVSPSLVNRMIDGAKKVLKNLQCEVNITADVWRGENSGKSPGWGITLVAQSKQKGWSYFAEDIGDAGSIPEELGEKVACQLLEEISKSAAVGRNQLPLAIVYMVIGKEDIGRLRINKEQIDERFIILLRDIKKIFNTEVFLKPVDEADNEDMIATIKGIGFTNTSKKIA | no binding |

Continued, values first:

| binding | Binder |
| --- | --- |
| binds | Utp22 (protein, UniProt P53254 1-1237) MATSVKRKASETSDQNIVKVQKKHSTQDSTTDNGSKENDHSSQAINERTVPEQENDESDTSPESNEVATNTAATRHNGKVTATESYDIHIARETAELFKSNIFKLQIDELLEQVKLKQKHVLKVEKFLHKLYDILQEIPDWEEKSLAEVDSFFKNKIVSVPFVDPKPIPQNTNYKFNYKKPDISLIGSFALKAGIYQPNGSSIDTLLTMPKELFEKKDFLNFRCLHKRSVYLAYLTHHLLILLKKDKLDSFLQLEYSYFDNDPLLPILRISCSKPTGDSLSDYNFYKTRFSINLLIGFPYKVFEPKKLLPNRNCIRIAQESKEQSLPATPLYNFSVLSSSTHENYLKYLYKTKKQTESFVEATVLGRLWLQQRGFSSNMSHSGSLGGFGTFEFTILMAALLNGGGINSNKILLHGFSSYQLFKGVIKYLATMDLCHDGHLQFHSNPENSSSSPASKYIDEGFQTPTLFDKSTKVNILTKMTVSSYQILKEYAGETLRMLNNVVQDQFSNIFLTNISRFDNLKYDLCYDVQLPLGKYNNLETSLAATFGSMERVKFITLENFLAHKITNVARYALGDRIKYIQIEMVGQKSDFPITKRKVYSNTGGNHFNFDFVRVKLIVNPSECDKLVTKGPAHSETMSTEAAVFKNFWGIKSSLRRFKDGSITHCCVWSTSSSEPIISSIVNFALQKHVSKKAQISNETIKKFHNFLPLPNLPSSAKTSVLNLSSFFNLKKSFDDLYKIIFQMKLPLSVKSILPVGSAFRYTSLCQPVPFAYSDPDFFQDVILEFETSPKWPDEITSLEKAKTAFLLKIQEELSANSSTYRSFFSRDESIPYNLEIVTLNILTPEGYGFKFRVLTERDEILYLRAIANARNELKPELEATFLKFTAKYLASVRHTRTLENISHSYQFYSPVVRLFKRWLDTHLLLGHITDELAELIAIKPFVDPAPYFIPGSLENGFLKVLKFISQWNWKDDPLILDLVKPEDDIRDTFETSIGAGSELDSKTMKKLSERLTLAQYKGIQMNFTNLRNSDPNGTHLQFFVASKNDPSGILYSSGIPLPIATRLTALAKVAVNLLQTHGLNQQTINLLFTPGLKDYDFVVDLRTPIGLKSSCGILSATEFKNITNDQAPSNFPENLNDLSEKMDPTYQLVKYLNLKYKNSLILSSRKYIGVNGGEKGDKNVITGLIKPLFKGAHKFRVNLDCNVKPVDDENVILNKEAIFHEIAAFGNDMVINFETD |
| binds | Rps24 (protein, UniProt P0CX32 1-135) MSDAVTIRTRKVISNPLLARKQFVVDVLHPNRANVSKDELREKLAEVYKAEKDAVSVFGFRTQFGGGKSVGFGLVYNSVAEAKKFEPTYRLVRYGLAEKVEKASRQQRKQKKNRDKKIFGTGKRLAKKVARRNAD |
| binds | Rpl8 (protein, UniProt P17076 1-256) MAPGKKVAPAPFGAKSTKSNKTRNPLTHSTPKNFGIGQAVQPKRNLSRYVKWPEYVRVQRQKKILSIRLKVPPTIAQFQYTLDRNTAAETFKLFNKYRPETAAEKKERLTKEAAAVAEGKSKQDASPKPYAVKYGLNHVVALIENKKAKLVLIANDVDPIELVVFLPALCKKMGVPYAIVKGKARLGTLVNQKTSAVAALTEVRAEDEAALAKLVSTIDANFADKYDEVKKHWGGGILGNKAQAKMDKRAKNSDSA |
| binds | Rpa135 (protein, UniProt P22138 1-1203) MSKVIKPPGQARTADFRTLERESRFINPPKDKSAFPLLQEAVQPHIGSFNALTEGPDGGLLNLGVKDIGEKVIFDGKPLNSEDEISNSGYLGNKLSVSVEQVSIAKPMSNDGVSSAVERKVYPSESRQRLTSYRGKLLLKLKWSVNNGEENLFEVRDCGGLPVMLQSNRCHLNKMSPYELVQHKEESDEIGGYFIVNGIEKLIRMLIVQRRNHPMAIIRPSFANRGASYSHYGIQIRSVRPDQTSQTNVLHYLNDGQVTFRFSWRKNEYLVPVVMILKALCHTSDREIFDGIIGNDVKDSFLTDRLELLLRGFKKRYPHLQNRTQVLQYLGDKFRVVFQASPDQSDLEVGQEVLDRIVLVHLGKDGSQDKFRMLLFMIRKLYSLVAGECSPDNPDATQHQEVLLGGFLYGMILKEKIDEYLQNIIAQVRMDINRGMAINFKDKRYMSRVLMRVNENIGSKMQYFLSTGNLVSQSGLDLQQVSGYTVVAEKINFYRFISHFRMVHRGSFFAQLKTTTVRKLLPESWGFLCPVHTPDGSPCGLLNHFAHKCRISTQQSDVSRIPSILYSLGVAPASHTFAAGPSLCCVQIDGKIIGWVSHEQGKIIADTLRYWKVEGKTPGLPIDLEIGYVPPSTRGQYPGLYLFGGHSRMLRPVRYLPLDKEDIVGPFEQVYMNIAVTPQEIQNNVHTHVEFTPTNILSILANLTPFSDFNQSPRNMYQCQMGKQTMGTPGVALCHRSDNKLYRLQTGQTPIVKANLYDDYGMDNFPNGFNAVVAVISYTGYDMDDAMIINKSADERGFGYGTMYKTEKVDLALNRNRGDPITQHFGFGNDEWPKEWLEKLDEDGLPYIGTYVEEGDPICAYFDDTLNKTKIKTYHSSEPAYIEEVNLIGDESNKFQELQTVSIKYRIRRTPQIGDKFSSRHGQKGVCSRKWPTIDMPFSETGIQPDIIINPHAFPSRMTIGMFVESLAGKAGALHGIAQDSTPWIFNEDDTPADYFGEQLAKAGYNYHGNEPMYSGATGEELRADIYVGVVYYQRLRHMVNDKFQVRSTGPVNSLTMQPVKGRKRHGGIRVGEMERDALIGHGTSFLLQDRLLNSSDYTQASVCRECGSILTTQQSVPRIGSISTVCCRRCSMRFEDAKKLLTKSEDGEKIFIDDSQIWEDGQGNKFVGGNETTTVAIPFVLKYLDSELSAMGIRLRYNVEPK |
